From patent US7851590B2 (7TM Pharma A/S, priority 2005, dated 2010)

Test: general procedure: Fmoc solid-phase peptide synthesis; Rink Amide MBHA; HBTU/HOBt/DIEA
Settings: whole synthesis, 220 nm, scale 0.25 mmole

[Lys4, Leu17, Thr30, Gln34]hPP
final HPLC purity: 95%
